Like-named read-outs stand apart in the source and are kept apart here. These are yes or no findings as the source states them, for the method shown. In cells and extracts the contact can be indirect. Here binding means that the protein was enriched with, or labelled near, the bait; the list need not be complete. No binding means not detected with the bait. Where a sequence is shown, tags or fusion partners need not be part of it.
T1: N-terminally FLAG-tagged SART3 (B0035.12) (C. elegans) (UniProt Q17430)
T1 sequence: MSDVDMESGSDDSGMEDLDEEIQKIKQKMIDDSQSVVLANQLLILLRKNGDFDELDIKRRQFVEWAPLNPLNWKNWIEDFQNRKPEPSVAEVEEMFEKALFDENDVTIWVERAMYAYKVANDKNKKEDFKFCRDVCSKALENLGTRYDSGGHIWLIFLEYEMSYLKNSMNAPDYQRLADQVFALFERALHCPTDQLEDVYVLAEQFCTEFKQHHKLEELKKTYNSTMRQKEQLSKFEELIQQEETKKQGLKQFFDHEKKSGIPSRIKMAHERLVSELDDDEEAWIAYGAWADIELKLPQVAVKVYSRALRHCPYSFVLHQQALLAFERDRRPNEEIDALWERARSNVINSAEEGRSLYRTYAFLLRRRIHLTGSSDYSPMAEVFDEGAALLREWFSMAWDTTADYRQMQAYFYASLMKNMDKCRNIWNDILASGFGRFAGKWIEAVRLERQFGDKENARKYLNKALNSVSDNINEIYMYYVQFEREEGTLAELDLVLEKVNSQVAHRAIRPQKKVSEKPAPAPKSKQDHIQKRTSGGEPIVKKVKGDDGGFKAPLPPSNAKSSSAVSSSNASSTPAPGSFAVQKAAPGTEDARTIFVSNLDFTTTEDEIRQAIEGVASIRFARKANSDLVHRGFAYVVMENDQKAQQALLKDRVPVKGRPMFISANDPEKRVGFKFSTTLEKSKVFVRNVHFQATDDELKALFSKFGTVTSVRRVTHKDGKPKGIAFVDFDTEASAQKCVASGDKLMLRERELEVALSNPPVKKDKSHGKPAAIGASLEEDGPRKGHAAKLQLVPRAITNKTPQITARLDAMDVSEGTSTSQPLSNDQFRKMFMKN


Key:
[1] = target: T1, N-terminally FLAG-tagged SART3 (B0035.12) (C. elegans); assay: affinity purification with mass spectrometry; anti-FLAG M2 magnetic beads on mixed stage worm lysate with FLAG/SART3 as bait; 30 mM HEPES/KOH pH 7.4, 100 mM KCl, 1.5 mM MgCl2, 0.1% Triton X-100; eluted with FLAG peptide; no RNase A
[2] = target: T1, N-terminally FLAG-tagged SART3 (B0035.12) (C. elegans); assay: as above; remark: listed apart in the source

binding [1]	binding [2]	Molecule
no binding	–	Lsm1
–	no binding	SNR-6/Sm E (protein, UniProt Q9XTU6 1-90) MSTRKLNKVMVQPVNLIFRYLQNRTRVQIWLYEDVTHRLEGYIIGFDEFMNVVFDEAEEVNMKTKGRNKIGRILLKGDNITLIHAAQQEA
